Reference: PubChem BioAssay AID1224830 (NIAID, 2016)
Here is one part, drawn at random, of about 18,000 reagents. Over the whole deposit, about 2,900 (16%) were called active. 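Calls are made per well; low scores hint the gene aids the LPS response, high scores that it dampens it.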 Repeated entries: four replicate wells of each siRNA pool.

- Aim: 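Host factors that control LPS-induced TNF expression in human macrophages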 (primary screen)
- System: human THP-1 monocytic leukaemia cells, TNF dual-luciferase reporter clone, PMA-differentiated to macrophage-like cells
- Reagents: siRNA pool against human genes, 50 nM
- Duration: LPS for 4 h, given about 3 days after siRNA transfection
- Conditions: bacterial LPS (TLR4 ligand), 10 ng/ml
- Detection: 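TNF firefly reporter luminescence divided by renilla, normalised to the plate median, then turned into a robust z-score for each replicate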
- Scale: TNF reporter robust z-score: higher = stronger TNF reporter response to LPS
- Active means: 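a well is active when its z-score exceeds 2.8 or falls below -1.5; control wells carry no call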

GOLM2 → TNF reporter robust z-score: -0.91; call: inactive
GOLM2 → TNF reporter robust z-score: -0.76; call: inactive
GOLM2 → TNF reporter robust z-score: -0.5; call: inactive
GOLM2 → TNF reporter robust z-score: -0.45; call: inactive
FBXL2 → TNF reporter robust z-score: -0.5; call: inactive
FBXL2 → TNF reporter robust z-score: 2.68; call: inactive
FBXL2 → TNF reporter robust z-score: 2.15; call: inactive
FBXL2 → TNF reporter robust z-score: 1.69; call: inactive
KLHL1 → TNF reporter robust z-score: 1.44; call: inactive
KLHL1 → TNF reporter robust z-score: 1.4; call: inactive
KLHL1 → TNF reporter robust z-score: 2.63; call: inactive
KLHL1 → TNF reporter robust z-score: 0; call: inactive
SEZ6L → TNF reporter robust z-score: 2.55; call: inactive
SEZ6L → TNF reporter robust z-score: 1.79; call: inactive
SEZ6L → TNF reporter robust z-score: 1.6; call: inactive
SEZ6L → TNF reporter robust z-score: 2.6; call: inactive
FBXO34 → TNF reporter robust z-score: -0.03; call: inactive
FBXO34 → TNF reporter robust z-score: 1.29; call: inactive
FBXO34 → TNF reporter robust z-score: -0.01; call: inactive
FBXO34 → TNF reporter robust z-score: -0.36; call: inactive
MVK → TNF reporter robust z-score: -1.01; call: inactive
MVK → TNF reporter robust z-score: -0.8; call: inactive
MVK → TNF reporter robust z-score: -1.22; call: inactive
MVK → TNF reporter robust z-score: -1.03; call: inactive
TMX3 → TNF reporter robust z-score: -0.75; call: inactive
TMX3 → TNF reporter robust z-score: -0.57; call: inactive
TMX3 → TNF reporter robust z-score: -0.76; call: inactive
TMX3 → TNF reporter robust z-score: -0.67; call: inactive
UBR5 → TNF reporter robust z-score: -0.6; call: inactive
UBR5 → TNF reporter robust z-score: -0.47; call: inactive
UBR5 → TNF reporter robust z-score: -0.48; call: inactive
UBR5 → TNF reporter robust z-score: -0.79; call: inactive
LAMTOR1 → TNF reporter robust z-score: -0.71; call: inactive
LAMTOR1 → TNF reporter robust z-score: 0.69; call: inactive
LAMTOR1 → TNF reporter robust z-score: 1.19; call: inactive
LAMTOR1 → TNF reporter robust z-score: 1.35; call: inactive
DDX43 → TNF reporter robust z-score: -1.14; call: inactive
DDX43 → TNF reporter robust z-score: -0.7; call: inactive
DDX43 → TNF reporter robust z-score: -1.02; call: inactive
DDX43 → TNF reporter robust z-score: 0.42; call: inactive

Laid out differently: results already given
{"Target gene": "FBXL2", "TNF reporter robust z-score": 1.69, "call": "inactive"}
{"Target gene": "KLHL1", "TNF reporter robust z-score": 1.44, "call": "inactive"}
{"Target gene": "KLHL1", "TNF reporter robust z-score": 1.4, "call": "inactive"}
{"Target gene": "KLHL1", "TNF reporter robust z-score": 2.63, "call": "inactive"}

More results follow.
TRO → TNF reporter robust z-score: -0.39; call: inactive
TRO → TNF reporter robust z-score: -0.03; call: inactive
TRO → TNF reporter robust z-score: -0.25; call: inactive
SIRT4 → TNF reporter robust z-score: -1.08; call: inactive
SIRT4 → TNF reporter robust z-score: -1.13; call: inactive
SIRT4 → TNF reporter robust z-score: -1.04; call: inactive
SIRT4 → TNF reporter robust z-score: -0.93; call: inactive
MYOZ3 → TNF reporter robust z-score: 0.64; call: inactive
MYOZ3 → TNF reporter robust z-score: 1.03; call: inactive
MYOZ3 → TNF reporter robust z-score: 0.9; call: inactive
MYOZ3 → TNF reporter robust z-score: 0.81; call: inactive
OR5T3 → TNF reporter robust z-score: -1.16; call: inactive
OR5T3 → TNF reporter robust z-score: -0.9; call: inactive
OR5T3 → TNF reporter robust z-score: -0.99; call: inactive
OR5T3 → TNF reporter robust z-score: -1.29; call: inactive
SIDT1 → TNF reporter robust z-score: 0.08; call: inactive
SIDT1 → TNF reporter robust z-score: 0.32; call: inactive
SIDT1 → TNF reporter robust z-score: 0.86; call: inactive
SIDT1 → TNF reporter robust z-score: -0.29; call: inactive
S100B → TNF reporter robust z-score: 0.75; call: inactive
S100B → TNF reporter robust z-score: -0.04; call: inactive
S100B → TNF reporter robust z-score: 0.15; call: inactive
S100B → TNF reporter robust z-score: 0.29; call: inactive
